From doi:10.1101/2021.09.18.460932
Results are given in words; binding and its absence hold for the method and conditions named. In cells and extracts the contact can be indirect. These calls come from enrichment with a bait or labelling near it, and not all partners need be listed.

Protein sequences, listed by entry. Tags and fused reporters are not part of them.
UniProt P60842: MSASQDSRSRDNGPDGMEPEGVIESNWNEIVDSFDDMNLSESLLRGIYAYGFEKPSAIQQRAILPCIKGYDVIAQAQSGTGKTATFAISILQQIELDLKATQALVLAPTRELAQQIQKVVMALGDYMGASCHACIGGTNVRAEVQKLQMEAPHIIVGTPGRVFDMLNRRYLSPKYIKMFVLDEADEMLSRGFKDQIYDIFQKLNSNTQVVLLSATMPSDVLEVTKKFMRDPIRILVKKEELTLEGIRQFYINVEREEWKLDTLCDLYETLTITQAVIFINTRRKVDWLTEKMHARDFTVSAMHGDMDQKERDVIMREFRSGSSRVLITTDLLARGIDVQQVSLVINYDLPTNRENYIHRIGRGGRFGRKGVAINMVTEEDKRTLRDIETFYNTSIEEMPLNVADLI
UniProt Q14240: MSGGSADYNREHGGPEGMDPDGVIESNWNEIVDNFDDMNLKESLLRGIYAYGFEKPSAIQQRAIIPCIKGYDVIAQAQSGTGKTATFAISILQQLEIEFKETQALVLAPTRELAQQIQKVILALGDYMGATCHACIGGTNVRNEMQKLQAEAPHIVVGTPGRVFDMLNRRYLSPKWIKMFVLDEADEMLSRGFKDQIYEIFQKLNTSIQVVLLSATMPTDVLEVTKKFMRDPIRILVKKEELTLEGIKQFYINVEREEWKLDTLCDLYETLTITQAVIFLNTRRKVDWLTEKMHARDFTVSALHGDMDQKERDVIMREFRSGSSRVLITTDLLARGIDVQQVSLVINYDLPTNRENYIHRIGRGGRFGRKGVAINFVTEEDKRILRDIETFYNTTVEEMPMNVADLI
UniProt P78344: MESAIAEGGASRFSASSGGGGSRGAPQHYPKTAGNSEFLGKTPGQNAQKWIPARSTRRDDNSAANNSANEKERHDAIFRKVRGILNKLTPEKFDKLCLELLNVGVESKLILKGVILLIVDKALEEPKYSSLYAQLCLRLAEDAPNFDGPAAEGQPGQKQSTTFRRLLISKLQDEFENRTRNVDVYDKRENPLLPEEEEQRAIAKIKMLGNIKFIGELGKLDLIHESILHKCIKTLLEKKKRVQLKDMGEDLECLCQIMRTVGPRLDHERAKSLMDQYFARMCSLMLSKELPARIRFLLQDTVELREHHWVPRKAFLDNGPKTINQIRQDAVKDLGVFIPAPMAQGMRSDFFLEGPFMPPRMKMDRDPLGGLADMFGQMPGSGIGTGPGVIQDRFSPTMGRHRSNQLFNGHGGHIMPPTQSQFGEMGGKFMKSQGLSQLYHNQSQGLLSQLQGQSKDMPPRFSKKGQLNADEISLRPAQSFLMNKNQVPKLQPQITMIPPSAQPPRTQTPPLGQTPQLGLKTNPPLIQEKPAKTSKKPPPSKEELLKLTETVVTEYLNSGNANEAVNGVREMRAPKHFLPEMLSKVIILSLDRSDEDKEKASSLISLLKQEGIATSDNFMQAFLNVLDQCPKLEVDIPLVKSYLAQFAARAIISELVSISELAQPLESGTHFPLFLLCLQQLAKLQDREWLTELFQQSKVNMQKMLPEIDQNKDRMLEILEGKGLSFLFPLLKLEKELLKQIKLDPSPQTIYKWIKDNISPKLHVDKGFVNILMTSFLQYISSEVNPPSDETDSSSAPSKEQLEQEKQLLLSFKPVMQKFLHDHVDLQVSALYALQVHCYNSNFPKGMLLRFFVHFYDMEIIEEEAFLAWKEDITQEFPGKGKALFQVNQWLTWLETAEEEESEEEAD
UniProt Q04637: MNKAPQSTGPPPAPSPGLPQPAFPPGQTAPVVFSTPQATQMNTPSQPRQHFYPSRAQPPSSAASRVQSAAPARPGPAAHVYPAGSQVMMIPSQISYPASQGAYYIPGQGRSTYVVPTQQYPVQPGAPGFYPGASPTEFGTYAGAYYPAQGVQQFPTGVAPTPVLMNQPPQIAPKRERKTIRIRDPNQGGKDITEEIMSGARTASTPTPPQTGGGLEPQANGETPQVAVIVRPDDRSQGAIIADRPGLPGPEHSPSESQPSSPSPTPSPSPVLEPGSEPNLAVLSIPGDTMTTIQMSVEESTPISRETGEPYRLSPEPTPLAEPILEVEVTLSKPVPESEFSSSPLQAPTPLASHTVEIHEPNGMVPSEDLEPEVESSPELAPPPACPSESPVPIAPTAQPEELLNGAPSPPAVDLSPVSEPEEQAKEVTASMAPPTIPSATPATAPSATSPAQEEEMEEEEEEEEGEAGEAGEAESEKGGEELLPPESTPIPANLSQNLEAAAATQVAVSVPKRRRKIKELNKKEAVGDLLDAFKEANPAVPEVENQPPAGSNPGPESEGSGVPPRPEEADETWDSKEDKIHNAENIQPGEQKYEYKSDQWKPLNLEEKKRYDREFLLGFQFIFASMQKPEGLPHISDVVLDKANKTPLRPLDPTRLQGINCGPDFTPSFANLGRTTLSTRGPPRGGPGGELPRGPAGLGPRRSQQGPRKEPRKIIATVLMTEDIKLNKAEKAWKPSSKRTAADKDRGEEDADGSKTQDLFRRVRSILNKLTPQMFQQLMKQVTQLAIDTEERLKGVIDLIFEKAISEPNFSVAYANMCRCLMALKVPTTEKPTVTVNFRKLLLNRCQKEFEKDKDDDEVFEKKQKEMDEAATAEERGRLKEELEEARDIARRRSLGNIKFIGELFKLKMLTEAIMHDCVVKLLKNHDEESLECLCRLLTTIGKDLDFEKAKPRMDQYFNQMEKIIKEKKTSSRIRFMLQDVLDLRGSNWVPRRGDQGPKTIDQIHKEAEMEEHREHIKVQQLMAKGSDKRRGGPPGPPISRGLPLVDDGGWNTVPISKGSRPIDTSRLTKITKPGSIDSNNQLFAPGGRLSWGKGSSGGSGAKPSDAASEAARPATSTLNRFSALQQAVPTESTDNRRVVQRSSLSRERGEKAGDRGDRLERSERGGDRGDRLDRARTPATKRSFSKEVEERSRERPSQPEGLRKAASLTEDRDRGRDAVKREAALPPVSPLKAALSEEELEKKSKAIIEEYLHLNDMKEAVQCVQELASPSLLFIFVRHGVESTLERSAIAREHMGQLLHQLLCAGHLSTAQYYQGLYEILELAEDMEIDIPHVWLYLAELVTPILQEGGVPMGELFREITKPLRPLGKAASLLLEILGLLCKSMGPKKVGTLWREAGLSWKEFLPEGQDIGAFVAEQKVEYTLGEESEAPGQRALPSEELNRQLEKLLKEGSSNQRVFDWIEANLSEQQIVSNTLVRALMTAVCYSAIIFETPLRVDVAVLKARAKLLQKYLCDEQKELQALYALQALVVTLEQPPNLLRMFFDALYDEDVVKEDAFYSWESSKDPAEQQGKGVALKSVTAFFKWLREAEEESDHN

Key:
[1] = molecular target: SBP-tagged eIF4A1 (human) (UniProt P60842); experiment: affinity purification with mass spectrometry
[2] = molecular target: SBP-tagged eIF4A2 (human) (UniProt Q14240); experiment: affinity purification with mass spectrometry

| Substance | binding [1] | binding [2] |
| --- | --- | --- |
| eIF4G2, endogenous (from UniProt P78344 1-907) | binds | binds |
| eIF4G1, endogenous (from UniProt Q04637 1-1599) | – | binds |
